# The list does not hold the whole screen: it is rich in T/C values a quarter to a half above the control, in often repeated tests (any T/C) and in doses without a T/C. Other doses and runs of a compound stand elsewhere. T/C is the treated group as % of the vehicle group. Some doses have a count of surviving animals in place of a T/C: the source files T/C as zero there, which appears to mark a toxic dose or a test without result, not a measured value. Some doses without a T/C left all or most animals alive at the check, yet need not have been tolerated: the source hardly ever lists a survival T/C far under the control, and the zero likely stands for such cases as well. Counts of survivors are from the toxicity check (mostly the fifth day) where no day follows; animals may have died later. Schedule codes are those of the source, read here as Q, the interval in days (D) or hours (H), X, the number of doses. Some schedules carry Z or #; the key to these is not given. Where survival is the endpoint, this PubChem deposit counts one and a half times the control or more as active, and values a quarter to a half above the control carry no call in these data; other NCI protocols may use other cut-offs. Some T/C values are followed by the survivors on the day toxicity was checked, most often the fifth; where none is given, no animal had died by that day. Some entries hold several experiments; the values are given in rising order. Counts like (3×) say how often a value occurs here.
# Test system: L1210 leukemia ip in BDF1 mice, survival T/C
# Test: NCI In Vivo Anticancer Drug Screen. Data for tumor model L1210 Leukemia (intraperitoneal) in B6D2F1 (BDF1) mice
# Conditions: higher T/C = longer survival
# [1] = T/C endpoint: median survival time, dose: 128.0 mg/kg/injection, schedule: Q01DX009 (oral), vehicle: saline
# [2] = T/C endpoint: mean survival time, dose: 200.0 mg/kg/injection, schedule: Q04DX003 (ip), vehicle: other
# [3] = T/C endpoint: mean survival time, dose: 400.0 mg/kg/injection, schedule: Q04DX003 (ip), vehicle: other
smiles,measurement,setting,value
C[C@@H](CN1CC(=O)NC(=O)C1)N1CC(=O)NC(=O)C1,T/C,"T/C endpoint: mean survival time, dose: 100.0 mg/kg/injection, schedule: Q04DX003 (ip), vehicle: water",133 % of control
same,T/C,"T/C endpoint: mean survival time, dose: 200.0 mg/kg/injection, schedule: Q04DX003 (ip), vehicle: saline",128 % of control
same,T/C,"T/C endpoint: mean survival time, dose: 200.0 mg/kg/injection, schedule: Q04DX003 (ip), vehicle: water",142 % of control
same,T/C,"T/C endpoint: mean survival time, dose: 800.0 mg/kg/injection, schedule: Q04DX003 (ip), vehicle: water",129 % of control
same,T/C,"T/C endpoint: mean survival time, dose: 1024.0 mg/kg/injection, schedule: Q04DX003 (oral), vehicle: saline",134 % of control
same,survivor count,"T/C endpoint: mean survival time, dose: 2048.0 mg/kg/injection, schedule: Q04DX003 (oral), vehicle: saline",2 of 10
same,T/C,"T/C endpoint: median survival time, dose: 8.0 mg/kg/injection, schedule: Q01DX009 (ip), vehicle: saline","118, 119, 121 (2×), 129 % of control"
same,T/C,"T/C endpoint: median survival time, dose: 8.0 mg/kg/injection, schedule: Q01DX009 (oral), vehicle: saline","113, 122, 123, 152 % of control"
same,T/C,"T/C endpoint: median survival time, dose: 16.0 mg/kg/injection, schedule: Q01DX009 (ip), vehicle: saline","128, 130, 134, 135, 148 % of control"
same,T/C,"T/C endpoint: median survival time, dose: 16.0 mg/kg/injection, schedule: Q01DX009 (oral), vehicle: saline","124, 127, 152, 153 % of control"
same,T/C,"T/C endpoint: median survival time, dose: 32.0 mg/kg/injection, schedule: Q01DX009 (ip), vehicle: saline","140, 143, 146, 154, 156 % of control"
same,T/C,"T/C endpoint: median survival time, dose: 32.0 mg/kg/injection, schedule: Q01DX009 (oral), vehicle: saline","134, 161, 164, 172 % of control"
same,T/C,"T/C endpoint: median survival time, dose: 32.0 mg/kg/injection, schedule: Q01DX009 (sc), vehicle: saline",149 % of control
same,T/C,"T/C endpoint: median survival time, dose: 64.0 mg/kg/injection, schedule: Q01DX009 (ip), vehicle: saline","153, 163 (2×), 169, 172 % of control"
same,T/C,"T/C endpoint: median survival time, dose: 64.0 mg/kg/injection, schedule: Q01DX009 (oral), vehicle: saline","91, 109, 131 [9 of 10 alive], 184 % of control"
same,T/C,"T/C endpoint: median survival time, dose: 64.0 mg/kg/injection, schedule: Q03HX016 (ip), vehicle: saline",137 % of control
same,T/C,[1],"89, 106, 112 % of control"
same,survivor count,[1],10 of 10
same,T/C,"T/C endpoint: median survival time, dose: 128.0 mg/kg/injection, schedule: Q01DX009 (sc), vehicle: saline",146 % of control
same,T/C,"T/C endpoint: median survival time, dose: 128.0 mg/kg/injection, schedule: Q08DX002 (ip), vehicle: saline",126 % of control
same,T/C,"T/C endpoint: median survival time, dose: 256.0 mg/kg/injection, schedule: Q04DX003 (oral), vehicle: saline","136, 150, 167, 184 % of control"
same,T/C,"T/C endpoint: median survival time, dose: 256.0 mg/kg/injection, schedule: Q04DX003 (sc), vehicle: saline",132 % of control
same,T/C,"T/C endpoint: median survival time, dose: 512.0 mg/kg/injection, schedule: Q04DX003 (ip), vehicle: saline",146 % of control
same,T/C,"T/C endpoint: median survival time, dose: 512.0 mg/kg/injection, schedule: Q04DX003 (oral), vehicle: saline","157, 184, 188, 236 % of control"
same,T/C,"T/C endpoint: median survival time, dose: 512.0 mg/kg/injection, schedule: Q08DX002 (ip), vehicle: saline",137 % of control
same,T/C,"T/C endpoint: median survival time, dose: 1024.0 mg/kg/injection, schedule: Q01DX001 (ip), vehicle: saline",130 % of control
same,T/C,"T/C endpoint: median survival time, dose: 1024.0 mg/kg/injection, schedule: Q04DX003 (oral), vehicle: saline","186, 236, 241, 242 % of control"
same,T/C,"T/C endpoint: median survival time, dose: 2048.0 mg/kg/injection, schedule: Q04DX003 (oral), vehicle: saline","98, 146, 198, 247 % of control"
CN(C)C/C(=C\c1ccccc1)C(=O)c1ccccc1,survivor count,[2],5 of 6
same,survivor count,[3],0 of 6
CCC(C)(C)c1ccc(OCCCCCCN2CCN(c3ccc(C)c(Cl)c3)CC2)cc1,survivor count,"T/C endpoint: mean survival time, dose: 300.0 mg/kg/injection, schedule: Q01DX001 (ip), vehicle: saline",2 of 6
CCc1cccc(CC)c1NC(N)=S,T/C,"T/C endpoint: mean survival time, dose: 100.0 mg/kg/injection, schedule: Q04DX002 (ip), vehicle: saline with Tween-80",128 % of control [2 of 3 alive]
same,survivor count,"T/C endpoint: mean survival time, dose: 200.0 mg/kg/injection, schedule: Q04DX002 (ip), vehicle: saline with Tween-80",0 of 3
same,survivor count,"T/C endpoint: mean survival time, dose: 400.0 mg/kg/injection, schedule: Q04DX002 (ip), vehicle: saline with Tween-80",0 of 3
Nc1nc(=O)n(CCCOc2ccccc2)cc1-c1ccc(Cl)c(Cl)c1,survivor count,"T/C endpoint: mean survival time, dose: 400.0 mg/kg/injection, schedule: Q01DX001 (ip), vehicle: gum acacia",6 of 6
Cc1cnc2c(NC(=O)CCl)nn(C)c2n1,survivor count,"T/C endpoint: mean survival time, dose: 200.0 mg/kg/injection, schedule: Q01DX009 (ip), vehicle: Klucel (hydroxypropylcellulose) (HPC)",0 of 6
same,survivor count,"T/C endpoint: mean survival time, dose: 400.0 mg/kg/injection, schedule: Q01DX009 (ip), vehicle: Klucel (hydroxypropylcellulose) (HPC)",0 of 6
same,survivor count,"T/C endpoint: mean survival time, dose: 400.0 mg/kg/injection, schedule: Q04DX003 (ip), vehicle: Klucel (hydroxypropylcellulose) (HPC)",0 of 6
CCOC(=O)N(OCc1ccccc1)P(=O)(N1CC1(C)C)N1CC1(C)C (configuration not stated),survivor count,"T/C endpoint: mean survival time, dose: 400.0 mg/kg/injection, schedule: Q04DX002 (ip), vehicle: saline",0 of 3
CNC(=O)OCC1=C(OC)C(=O)C(OC)=CC1=O,survivor count,"T/C endpoint: mean survival time, dose: 100.0 mg/kg/injection, schedule: Q04DX003 (ip), vehicle: other",2 of 6
same,survivor count,[2],0 of 6
same,survivor count,[3],0 of 6
C[N+](C)(C)c1ccc(NC(=O)c2ccc(C(=O)Nc3ccc([N+](C)(C)C)cc3)cc2)cc1,survivor count,"T/C endpoint: mean survival time, dose: 4.0 mg/kg/injection, schedule: Q01DX Z (ip), vehicle: saline",0 of 6
same,survivor count,"T/C endpoint: mean survival time, dose: 8.0 mg/kg/injection, schedule: Q01DX Z (ip), vehicle: saline",0 of 6
same,survivor count,"T/C endpoint: mean survival time, dose: 15.0 mg/kg/injection, schedule: Q01DX Z (ip), vehicle: saline",0 of 6
same,survivor count,"T/C endpoint: mean survival time, dose: 30.0 mg/kg/injection, schedule: Q01DX Z (ip), vehicle: saline",0 of 6
same,survivor count,"T/C endpoint: mean survival time, dose: 60.0 mg/kg/injection, schedule: Q01DX Z (ip), vehicle: saline",0 of 6
same,survivor count,"T/C endpoint: mean survival time, dose: 120.0 mg/kg/injection, schedule: Q01DX Z (ip), vehicle: saline",0 of 6
CCCCCCCCCCCCNC(=O)c1ccccc1O,survivor count,"T/C endpoint: mean survival time, dose: 200.0 mg/kg/injection, schedule: Q01DX009 (ip), vehicle: other",3 of 6
CC(=O)NC1CCC(C(C)(C)C)CC1 (configuration not stated),survivor count,"T/C endpoint: mean survival time, dose: 400.0 mg/kg/injection, schedule: Q01DX009 (ip), vehicle: saline with Tween-80",0 of 6
NNS(=O)(=O)CCCCCCCCCCC(=O)O,survivor count,"T/C endpoint: mean survival time, dose: 400.0 mg/kg/injection, schedule: Q04DX003 (ip), vehicle: saline with Tween-80",6 of 6
S=C(Nc1ccc(Cl)c(Cl)c1)Sc1ccccc1,survivor count,"T/C endpoint: mean survival time, dose: 200.0 mg/kg/injection, schedule: Q04DX003 (ip), vehicle: saline with Tween-80",0 of 3
